Record: PubChem BioAssay AID1259308 (NCATS, 2017)
This is a random part of about 59,000 deposited reagents. About 1,510 of all reagents (2.6%) were called active. 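Calls use total luciferase alone and ignore viability, so some active siRNAs may act by altering cell number.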 Entries without a mark were called inactive. Reagents against one gene are numbered here. Further read-outs or replicates are left out here. Reagent sequences are not shown.

Test: 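Knock-downs that increase output of a recombinant reporter protein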 (primary screen)
Cells: human HEK293 embryonic kidney cells stably expressing firefly luciferase (HEK-CMV-Luc2-Hygro)
Reagent: single siRNA against human genes, 0.8 pmol siRNA per well
Time to read-out: 72 h
Read-out: 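Luciferase light (ONE-Glo) measured on one replicate plate set and viability (CellTiter-Glo) on the other, scaled to a negative control siRNA, with robust z-scores and luciferase per cell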
Scale: total luciferase, z-score and total luciferase, % of control: higher = more reporter protein produced
Call rule: 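An siRNA counts as active if its total luciferase robust z-score exceeds 3; genes with two or more such siRNAs out of three were retested with fresh siRNAs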
Calls: active = raised luciferase; inactive = no rise

Knock-down of SLC25A30 #1 gave: total luciferase, z-score -0.137; total luciferase, % of control 79.2.
Depletion of SLC25A30 #2 gave: total luciferase, z-score 0.0147; total luciferase, % of control 82.2.
With knock-down of SLC25A30 #3, the screen gave total luciferase, z-score -0.765; total luciferase, % of control 66.7.
LINC00999 #1 gave total luciferase, z-score 0.352; total luciferase, % of control 88.9.
LINC00999 #2 scored total luciferase, z-score 2.89; total luciferase, % of control 139.
LINC00999 #3 showed total luciferase, z-score -0.622; total luciferase, % of control 69.5.
DIPK1C #1 scored total luciferase, z-score 0.529; total luciferase, % of control 92.4.
After knock-down of DIPK1C #2, the screen gave total luciferase, z-score -0.741; total luciferase, % of control 67.1.
With knock-down of DIPK1C #3, the screen gave total luciferase, z-score -0.899; total luciferase, % of control 64.
Against HCG9 #1 the deposit lists total luciferase, z-score 0.21; total luciferase, % of control 86.1.
HCG9 #2 scored total luciferase, z-score -0.305; total luciferase, % of control 75.8.
HCG9 #3 gave total luciferase, z-score -0.716; total luciferase, % of control 67.6.

Part of the list above, showing only “total luciferase, % of control”.
SLC25A30 #2 = 82.2
SLC25A30 #3 = 66.7

More results follow.
NFIA #1 showed total luciferase, z-score -0.098; total luciferase, % of control 79.9.
Silencing of NFIA #2 gave: total luciferase, z-score -1.04; total luciferase, % of control 61.2.
For NFIA #3 the deposit lists total luciferase, z-score -0.827; total luciferase, % of control 65.4.
Depletion of KIZ #1 resulted in: total luciferase, z-score 1.14; total luciferase, % of control 105.
Against KIZ #2 the deposit lists total luciferase, z-score -0.806; total luciferase, % of control 65.8.
Against KIZ #3, the values are total luciferase, z-score 0.306; total luciferase, % of control 88.
With knock-down of RDH13 #1, the record shows total luciferase, z-score 1.09; total luciferase, % of control 104.
Knock-down of RDH13 #2 came out at: total luciferase, z-score -0.1; total luciferase, % of control 79.9.
For RDH13 #3, the entry reads total luciferase, z-score 0.942; total luciferase, % of control 101.
